Reference: PMC6974715
Results are given in words; binding and its absence hold for the method and conditions named. For part of these data: In cells and extracts the contact can be indirect. Some entries that bind do so weakly or less than the wild type.

Sequences of proteins named here, by UniProt entry; tags and fusion partners are left off. A change or cut given only in a name is not applied to a line headed by its entry. Residues count along the entry.
UniProt Q9BXW4, residues 1-126: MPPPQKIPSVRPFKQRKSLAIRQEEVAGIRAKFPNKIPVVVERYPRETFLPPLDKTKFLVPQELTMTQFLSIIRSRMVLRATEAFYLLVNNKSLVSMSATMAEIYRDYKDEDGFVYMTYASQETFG
UniProt P54252: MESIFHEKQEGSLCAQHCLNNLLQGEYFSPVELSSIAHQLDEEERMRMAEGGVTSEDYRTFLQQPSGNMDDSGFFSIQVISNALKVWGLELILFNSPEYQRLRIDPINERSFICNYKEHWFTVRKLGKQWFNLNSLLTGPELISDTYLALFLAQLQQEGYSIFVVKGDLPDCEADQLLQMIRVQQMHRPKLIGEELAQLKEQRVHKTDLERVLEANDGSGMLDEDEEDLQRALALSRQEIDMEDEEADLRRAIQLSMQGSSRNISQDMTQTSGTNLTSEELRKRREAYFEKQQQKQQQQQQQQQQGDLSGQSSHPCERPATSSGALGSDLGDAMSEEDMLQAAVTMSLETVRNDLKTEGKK

What was measured:
[1] = molecular target: Recombinant GABARAP immobilized on agarose beads (UniProt O95166); assay: pull-down; HeLa cell lysates (dox-inducible ^10xHisATXN3^HA, or transfected GFP-ATXN3 constructs) incubated with recombinant GABARAP or LC3A immobilized on agarose beads (blocked empty beads as control); immunoblot; only the target purified
[2] = molecular target: Recombinant GABARAP immobilized on agarose beads (UniProt O95166); assay: pull-down; purified recombinant ATXN3 incubated with recombinant GABARAP or LC3A immobilized on agarose beads (blocked empty beads as control); immunoblot; both purified
[3] = molecular target: Recombinant LC3A immobilized on agarose beads (UniProt Q9H492); assay: pull-down; HeLa cell lysates (dox-inducible ^10xHisATXN3^HA, or transfected GFP-ATXN3 constructs) incubated with recombinant GABARAP or LC3A immobilized on agarose beads (blocked empty beads as control); immunoblot; only the target purified
GST-GABARAP = GST-GABARAP (UniProt O95166); assay: pull-down; lysates of HeLa ^10xHisATXN3^HA incubated with purified recombinant GST-tagged Atg8 proteins immobilized on glutathione beads; immunoblot; only the target purified
GST-LC3C = GST-LC3C (UniProt Q9BXW4); assay: as above

In the case of “Endogenous ATXN3 (from UniProt P54252 1-361) (enzyme)”, the binding [1] is reported as “binds”.
“Purified, recombinant ATXN3 (from UniProt P54252-2 1-361) (enzyme)” was tested, and the binding [2] was “binds”.
In the case of p62 (from UniProt Q13501 1-440), the binding [3] is reported as “binds”.
In the case of “ATXN3 with N-terminal histidine (10xHis) and C-terminal hemagglutinin (HA) epitope tags (from UniProt P54252-2 1-361) (enzyme)”, the binding (GST-GABARAP) is reported as “binds”, the binding (GST-LC3C) is reported as “binds” and the binding [1] is reported as “binds”.
